Some of the results follow. Hit calls seldom repeat between salt and free forms of one compound.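 In K562 cells expressing nanoluciferase-fused kinases, luminescence was recorded at 4 h intervals between 2 and 18 h, normalized as percent of control with DMSO at 100% and a positive control at 0%. A significant (2 sigma) signal drop marks a time point as decreased. The authors' rule for a hit is not shown and takes in more than the number of time points.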
What was measured:
Assay in all cases: number of time points (of 5) at which kinase-Nluc abundance scored as decreased, DMSO-normalised (count); higher = more persistent destabilization
[1] = compound: CNC(=O)c1cc(Oc2ccc(NC(=O)Nc3ccc(Cl)c(C(F)(F)F)c3)cc2)ccn1 [Sorafenib]; conditions: 2.5 µM; K562; 2-18 h
[2] = compound: COc1cc(N2CCC(N3CCN(C)CC3)CC2)ccc1Nc1ncc(Cl)c(Nc2ccccc2S(=O)(=O)C(C)C)n1; conditions: 2.5 µM; K562; 2-18 h
[3] = compound: COc1cc(N2CCN(C)CC2)ccc1Nc1nccc(-c2cn(C)c3cnccc23)n1; conditions: 10 µM; K562; 2-18 h
[4] = compound: COc1cc(Nc2c(C#N)cnc3cc(OCCCN4CCN(C)CC4)c(OC)cc23)c(Cl)cc1Cl [Bosutinib]; conditions: 2.5 µM; K562; 2-18 h
[5] = compound: COc1cc2/c(=N/c3ccc(Br)cc3F)nc[nH]c2cc1OCC1CCN(C)CC1 [Vandetanib]; conditions: 2.5 µM; K562; 2-18 h
[6] = compound: COc1cc2ncnc(Nc3ccc(F)c(Cl)c3)c2cc1OCCCN1CCOCC1 [Gefitinib]; conditions: 10 µM; K562; 2-18 h
[7] = compound: COc1cc2ncnc(Nc3cccc(Br)c3)c2cc1OC; conditions: 10 µM; K562; 2-18 h
[8] = compound: COc1ccc(-c2c[nH]c3nccc(-c4ccsc4)c23)c(OC)c1; conditions: 10 µM; K562; 2-18 h
[9] = compound: COc1ccc(-c2cc(C(=O)NN=C(C)c3ccc(OC)c(OC)c3)[nH]n2)cc1; conditions: 10 µM; K562; 2-18 h
[10] = compound: COc1ccc(-c2cc3nccn3c(Nc3ncccc3C(N)=O)n2)cc1OC [BAY 61-3606 (dihydrochloride)]; conditions: 2.5 µM; K562; 2-18 h
[11] = compound: COc1ccc(CNC(=O)Nc2ncc([N+](=O)[O-])s2)cc1; conditions: 2.5 µM; K562; 2-18 h
[12] = compound: COc1nccc(-c2c(-c3ccc(F)cc3)ncn2C2CCNCC2)n1; conditions: 10 µM; K562; 2-18 h
[13] = compound: C[C@@H]1CN(C(=O)Nc2ccc(-c3nc(N4CCOCC4)c4cnn(CCCCCCC(=O)NO)c4n3)cc2)CCO1 [HDACs/mTOR Inhibitor 1]; conditions: 10 µM; K562; 2-18 h
[14] = compound: C[C@@H]1O[C@@H](Oc2c(-c3ccc(O)c(O)c3)oc3cc(O)cc(O)c3c2=O)[C@H](O)[C@H](O)[C@H]1O [Quercitrin]; conditions: 10 µM; K562; 2-18 h
[15] = compound: C[C@@]1(C(=O)Nc2ccc(F)nc2)CCCN1c1nc(Nc2cc(C3CC3)n[nH]2)c2cccn2n1; conditions: 10 µM; K562; 2-18 h
[16] = compound: C[C@H]1CN(C2COC2)CCN1c1ccc(Nc2cc(-c3ccnc(N4CCn5c(cc6c5CC(C)(C)C6)C4=O)c3CO)cn(C)c2=O)nc1 [Fenebrutinib]; conditions: 10 µM; K562; 2-18 h

Amino acid sequences for entries named in this document (tags omitted). A change or cut given only in a name is not applied to a line headed by its entry.
UniProt Q96KB5: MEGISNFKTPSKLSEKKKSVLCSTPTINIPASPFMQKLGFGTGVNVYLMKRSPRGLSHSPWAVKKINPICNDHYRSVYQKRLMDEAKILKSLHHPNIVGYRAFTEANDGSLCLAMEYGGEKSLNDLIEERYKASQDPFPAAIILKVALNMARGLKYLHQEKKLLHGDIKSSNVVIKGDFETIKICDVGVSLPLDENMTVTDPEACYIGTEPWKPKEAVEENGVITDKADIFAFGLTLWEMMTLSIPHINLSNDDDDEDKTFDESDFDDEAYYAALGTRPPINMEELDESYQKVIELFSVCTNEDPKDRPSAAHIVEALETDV
UniProt Q9UBF8: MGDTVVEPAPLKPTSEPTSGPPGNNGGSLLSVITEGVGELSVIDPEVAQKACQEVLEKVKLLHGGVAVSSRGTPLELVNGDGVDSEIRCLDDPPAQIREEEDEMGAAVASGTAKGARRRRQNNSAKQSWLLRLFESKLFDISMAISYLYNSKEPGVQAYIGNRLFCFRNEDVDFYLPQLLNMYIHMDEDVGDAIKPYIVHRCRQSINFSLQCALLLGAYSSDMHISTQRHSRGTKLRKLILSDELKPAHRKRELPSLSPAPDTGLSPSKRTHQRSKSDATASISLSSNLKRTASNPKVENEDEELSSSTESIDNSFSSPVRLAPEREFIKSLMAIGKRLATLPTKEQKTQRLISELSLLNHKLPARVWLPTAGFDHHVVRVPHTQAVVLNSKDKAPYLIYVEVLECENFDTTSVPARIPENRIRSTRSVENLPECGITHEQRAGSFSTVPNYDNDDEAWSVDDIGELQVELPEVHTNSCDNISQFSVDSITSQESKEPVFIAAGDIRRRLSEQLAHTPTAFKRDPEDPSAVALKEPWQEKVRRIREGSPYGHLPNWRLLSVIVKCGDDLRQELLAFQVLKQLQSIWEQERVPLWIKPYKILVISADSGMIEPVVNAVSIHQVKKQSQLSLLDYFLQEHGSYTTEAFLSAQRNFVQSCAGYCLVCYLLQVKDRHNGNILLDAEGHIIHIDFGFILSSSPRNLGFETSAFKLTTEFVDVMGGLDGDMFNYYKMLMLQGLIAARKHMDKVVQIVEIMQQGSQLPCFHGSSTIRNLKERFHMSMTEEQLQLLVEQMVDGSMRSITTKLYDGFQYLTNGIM
UniProt Q9BRS2: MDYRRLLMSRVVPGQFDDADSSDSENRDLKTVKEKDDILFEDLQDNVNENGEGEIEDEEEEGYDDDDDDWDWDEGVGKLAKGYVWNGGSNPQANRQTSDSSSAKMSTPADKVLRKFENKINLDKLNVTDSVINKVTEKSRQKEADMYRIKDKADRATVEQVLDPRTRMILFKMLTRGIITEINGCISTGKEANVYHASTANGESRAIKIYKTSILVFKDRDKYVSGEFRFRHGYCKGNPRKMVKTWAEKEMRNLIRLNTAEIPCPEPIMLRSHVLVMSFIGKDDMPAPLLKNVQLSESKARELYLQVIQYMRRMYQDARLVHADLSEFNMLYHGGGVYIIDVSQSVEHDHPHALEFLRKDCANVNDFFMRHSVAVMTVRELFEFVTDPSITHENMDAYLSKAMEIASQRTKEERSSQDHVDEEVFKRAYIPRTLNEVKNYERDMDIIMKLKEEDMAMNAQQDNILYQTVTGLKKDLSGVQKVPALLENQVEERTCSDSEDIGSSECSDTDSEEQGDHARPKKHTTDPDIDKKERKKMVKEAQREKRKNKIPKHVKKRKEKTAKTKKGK
UniProt Q15303, whole entry R711C: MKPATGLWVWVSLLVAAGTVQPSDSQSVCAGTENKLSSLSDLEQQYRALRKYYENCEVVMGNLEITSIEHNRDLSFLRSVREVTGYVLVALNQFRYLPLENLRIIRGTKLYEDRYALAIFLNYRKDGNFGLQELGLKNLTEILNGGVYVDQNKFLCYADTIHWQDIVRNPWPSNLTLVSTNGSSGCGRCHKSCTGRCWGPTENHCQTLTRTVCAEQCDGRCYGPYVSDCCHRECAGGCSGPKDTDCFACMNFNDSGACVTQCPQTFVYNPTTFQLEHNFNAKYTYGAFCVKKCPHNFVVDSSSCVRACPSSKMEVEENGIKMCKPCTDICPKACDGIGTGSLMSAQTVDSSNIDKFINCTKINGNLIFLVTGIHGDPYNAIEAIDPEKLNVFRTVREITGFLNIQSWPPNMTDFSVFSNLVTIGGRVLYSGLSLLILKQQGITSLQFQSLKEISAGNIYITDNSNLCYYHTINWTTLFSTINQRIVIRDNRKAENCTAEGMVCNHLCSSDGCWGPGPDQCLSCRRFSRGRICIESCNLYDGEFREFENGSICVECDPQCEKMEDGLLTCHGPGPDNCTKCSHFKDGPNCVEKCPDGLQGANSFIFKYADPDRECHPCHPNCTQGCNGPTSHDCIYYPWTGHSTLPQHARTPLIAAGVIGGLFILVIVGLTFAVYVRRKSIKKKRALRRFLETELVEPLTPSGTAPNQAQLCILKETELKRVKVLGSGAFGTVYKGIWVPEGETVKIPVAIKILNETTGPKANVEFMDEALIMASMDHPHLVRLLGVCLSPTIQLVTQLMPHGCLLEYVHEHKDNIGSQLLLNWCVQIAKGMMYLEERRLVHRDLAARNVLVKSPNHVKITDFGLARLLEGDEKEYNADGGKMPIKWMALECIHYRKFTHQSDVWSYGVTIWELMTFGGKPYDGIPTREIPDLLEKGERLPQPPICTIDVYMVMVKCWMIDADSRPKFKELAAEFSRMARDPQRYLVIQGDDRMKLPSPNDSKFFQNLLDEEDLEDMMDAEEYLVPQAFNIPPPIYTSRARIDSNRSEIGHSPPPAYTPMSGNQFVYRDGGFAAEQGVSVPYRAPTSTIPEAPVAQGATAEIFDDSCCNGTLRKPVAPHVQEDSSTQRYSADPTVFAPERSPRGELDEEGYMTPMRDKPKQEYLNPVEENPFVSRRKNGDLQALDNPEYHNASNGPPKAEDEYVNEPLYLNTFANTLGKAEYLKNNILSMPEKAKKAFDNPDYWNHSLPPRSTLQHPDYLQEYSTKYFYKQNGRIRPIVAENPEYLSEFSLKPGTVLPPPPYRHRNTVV
UniProt P48729: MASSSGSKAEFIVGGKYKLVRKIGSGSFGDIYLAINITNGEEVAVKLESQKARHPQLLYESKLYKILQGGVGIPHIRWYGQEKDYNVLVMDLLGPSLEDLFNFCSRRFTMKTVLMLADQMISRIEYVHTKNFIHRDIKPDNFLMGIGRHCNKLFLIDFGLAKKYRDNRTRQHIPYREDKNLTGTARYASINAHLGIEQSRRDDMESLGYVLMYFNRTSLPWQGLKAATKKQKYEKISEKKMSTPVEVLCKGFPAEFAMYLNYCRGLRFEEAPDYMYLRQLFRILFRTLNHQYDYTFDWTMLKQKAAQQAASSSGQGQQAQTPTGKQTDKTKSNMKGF
UniProt O96017, whole entry: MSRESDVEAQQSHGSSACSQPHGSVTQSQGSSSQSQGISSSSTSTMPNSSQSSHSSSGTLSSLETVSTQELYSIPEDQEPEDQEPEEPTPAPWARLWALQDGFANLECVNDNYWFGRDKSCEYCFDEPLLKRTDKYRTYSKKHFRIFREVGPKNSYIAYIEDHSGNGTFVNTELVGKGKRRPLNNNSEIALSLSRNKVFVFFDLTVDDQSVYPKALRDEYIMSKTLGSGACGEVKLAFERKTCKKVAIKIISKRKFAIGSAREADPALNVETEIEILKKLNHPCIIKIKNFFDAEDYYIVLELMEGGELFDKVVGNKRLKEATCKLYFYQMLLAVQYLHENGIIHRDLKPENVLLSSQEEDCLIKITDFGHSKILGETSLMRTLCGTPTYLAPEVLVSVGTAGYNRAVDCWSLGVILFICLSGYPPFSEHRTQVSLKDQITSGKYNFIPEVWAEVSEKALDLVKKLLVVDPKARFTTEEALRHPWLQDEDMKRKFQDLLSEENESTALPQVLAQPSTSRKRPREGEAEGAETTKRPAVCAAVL
UniProt P29597: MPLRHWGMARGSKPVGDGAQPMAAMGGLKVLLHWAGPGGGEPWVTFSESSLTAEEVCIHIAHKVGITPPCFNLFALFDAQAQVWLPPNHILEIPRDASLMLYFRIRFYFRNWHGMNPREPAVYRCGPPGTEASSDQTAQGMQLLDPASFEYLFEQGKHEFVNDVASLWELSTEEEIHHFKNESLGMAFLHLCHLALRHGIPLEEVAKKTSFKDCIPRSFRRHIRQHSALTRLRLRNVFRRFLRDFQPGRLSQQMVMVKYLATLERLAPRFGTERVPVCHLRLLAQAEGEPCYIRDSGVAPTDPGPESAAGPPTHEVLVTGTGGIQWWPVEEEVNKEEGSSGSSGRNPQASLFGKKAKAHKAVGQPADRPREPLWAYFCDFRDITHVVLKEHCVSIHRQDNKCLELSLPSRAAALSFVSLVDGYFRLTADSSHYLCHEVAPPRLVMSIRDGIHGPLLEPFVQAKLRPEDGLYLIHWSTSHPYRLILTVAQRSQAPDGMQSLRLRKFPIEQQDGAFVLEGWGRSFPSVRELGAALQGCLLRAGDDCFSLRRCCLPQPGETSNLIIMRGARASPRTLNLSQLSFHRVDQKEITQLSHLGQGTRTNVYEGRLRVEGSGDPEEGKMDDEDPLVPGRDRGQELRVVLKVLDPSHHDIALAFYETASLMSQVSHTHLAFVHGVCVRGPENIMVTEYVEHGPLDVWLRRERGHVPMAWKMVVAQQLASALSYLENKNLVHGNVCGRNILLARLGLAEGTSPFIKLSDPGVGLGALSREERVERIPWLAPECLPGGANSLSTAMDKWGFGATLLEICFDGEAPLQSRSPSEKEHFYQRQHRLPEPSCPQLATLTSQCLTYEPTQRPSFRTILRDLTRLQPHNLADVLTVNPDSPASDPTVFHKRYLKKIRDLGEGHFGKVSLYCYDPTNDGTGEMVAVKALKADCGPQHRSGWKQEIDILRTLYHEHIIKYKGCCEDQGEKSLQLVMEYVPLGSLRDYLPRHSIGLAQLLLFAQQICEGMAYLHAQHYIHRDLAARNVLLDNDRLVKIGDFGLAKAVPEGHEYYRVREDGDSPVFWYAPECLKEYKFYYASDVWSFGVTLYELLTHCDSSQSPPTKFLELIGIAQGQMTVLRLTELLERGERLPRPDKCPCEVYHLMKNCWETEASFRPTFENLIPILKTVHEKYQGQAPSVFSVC
UniProt Q8IWU2: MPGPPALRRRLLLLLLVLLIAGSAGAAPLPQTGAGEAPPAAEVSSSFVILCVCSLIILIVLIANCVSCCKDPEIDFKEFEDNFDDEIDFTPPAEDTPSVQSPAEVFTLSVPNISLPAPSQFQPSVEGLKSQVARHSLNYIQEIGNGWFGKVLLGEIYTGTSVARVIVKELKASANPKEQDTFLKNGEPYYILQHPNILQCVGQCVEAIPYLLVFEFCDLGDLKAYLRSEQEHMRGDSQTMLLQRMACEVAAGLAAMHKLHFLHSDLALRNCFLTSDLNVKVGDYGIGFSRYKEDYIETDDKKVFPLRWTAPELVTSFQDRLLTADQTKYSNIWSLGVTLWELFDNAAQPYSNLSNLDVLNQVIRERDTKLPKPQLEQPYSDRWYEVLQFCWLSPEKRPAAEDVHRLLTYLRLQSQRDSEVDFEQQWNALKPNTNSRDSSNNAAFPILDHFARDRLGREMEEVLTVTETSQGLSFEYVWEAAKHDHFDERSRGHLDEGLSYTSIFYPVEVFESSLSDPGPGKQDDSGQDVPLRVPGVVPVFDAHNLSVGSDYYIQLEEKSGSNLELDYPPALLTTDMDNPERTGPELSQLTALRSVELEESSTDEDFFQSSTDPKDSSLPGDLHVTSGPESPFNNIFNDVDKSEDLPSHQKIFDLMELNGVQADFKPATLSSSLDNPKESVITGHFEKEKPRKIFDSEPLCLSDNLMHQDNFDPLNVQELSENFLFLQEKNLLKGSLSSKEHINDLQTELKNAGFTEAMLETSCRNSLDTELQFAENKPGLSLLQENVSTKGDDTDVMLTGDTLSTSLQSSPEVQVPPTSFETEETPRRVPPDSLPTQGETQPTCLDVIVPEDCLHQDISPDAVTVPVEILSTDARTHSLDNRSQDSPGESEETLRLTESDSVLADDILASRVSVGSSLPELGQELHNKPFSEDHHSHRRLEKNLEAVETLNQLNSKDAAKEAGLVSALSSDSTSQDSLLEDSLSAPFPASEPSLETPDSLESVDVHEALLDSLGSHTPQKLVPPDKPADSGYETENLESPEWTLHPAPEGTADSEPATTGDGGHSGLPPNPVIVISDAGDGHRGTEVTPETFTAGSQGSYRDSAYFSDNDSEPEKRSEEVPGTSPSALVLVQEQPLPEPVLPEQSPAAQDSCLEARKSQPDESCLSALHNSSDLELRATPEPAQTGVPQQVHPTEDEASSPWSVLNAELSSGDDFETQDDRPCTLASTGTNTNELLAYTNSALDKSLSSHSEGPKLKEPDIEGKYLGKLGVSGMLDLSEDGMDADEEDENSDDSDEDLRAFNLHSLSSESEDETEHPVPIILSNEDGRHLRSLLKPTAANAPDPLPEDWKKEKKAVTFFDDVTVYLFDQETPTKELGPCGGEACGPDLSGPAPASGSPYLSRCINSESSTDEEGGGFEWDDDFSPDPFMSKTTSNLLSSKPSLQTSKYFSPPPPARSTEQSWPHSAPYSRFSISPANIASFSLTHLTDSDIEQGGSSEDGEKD

Measured: number of time points

CSK (UniProt P41240)
0: [1] | [2] | [3] | [4] | [5] | [6] | [7] | [8] | [9] | [10] | [11] | [12] | [13] | [14] | [15] | [16]

ERN1 (UniProt O75460)
0: [1] | [2] | [3] | [4] | [5] | [6] | [7] | [8] | [9] | [10] | [11] | [12] | [13] | [14] | [15] | [16]

CDK2 (UniProt P24941)
0: [1] | [2] | [3] | [4] | [5] | [6] | [7] | [8] | [9] | [10] | [11] | [12] | [13] | [14] | [15] | [16]

PBK (UniProt Q96KB5)
0: [1] | [2] | [3] | [4] | [5] | [6] | [7] | [8] | [9] | [10] | [11] | [12] | [13] | [14] | [15] | [16]

PIK4CB (UniProt Q9UBF8)
0: [1] | [2] | [3] | [5] | [6] | [7] | [8] | [9] | [10] | [11] | [12] | [13] | [14] | [15] | [16]
1: [4]

RPS6KA1 (UniProt Q15418)
0: [1] | [2] | [3] | [4] | [5] | [6] | [7] | [8] | [9] | [10] | [11] | [12] | [13] | [14] | [15] | [16]

RIOK1 (UniProt Q9BRS2)
1: [4]
0: [1] | [2] | [3] | [5] | [6] | [7] | [8] | [9] | [10] | [11] | [12] | [13] | [14] | [15] | [16]

ERBB4_R711C (clone: ERBB4_mut) (UniProt Q15303)
2: [2] | [4] | [15]
1: [1] | [5] | [9]
0: [3] | [6] | [7] | [10] | [11] | [12] | [13] | [14] | [16]
3: [8]

JAK1 (UniProt P23458)
2: [8] | [9]
0: [1] | [2] | [3] | [4] | [5] | [6] | [7] | [10] | [11] | [12] | [13] | [14] | [15] | [16]

GSK3A (UniProt P49840)
0: [1] | [2] | [3] | [4] | [5] | [6] | [7] | [8] | [9] | [10] | [11] | [12] | [14] | [15] | [16]
1: [13]

CSNK1A1 (UniProt P48729)
0: [1] | [2] | [3] | [4] | [5] | [7] | [8] | [9] | [10] | [11] | [12] | [13] | [14] | [15] | [16]
1: [6]

LIMK2 (UniProt P53671)
0: [1] | [2] | [3] | [4] | [5] | [6] | [7] | [8] | [9] | [10] | [11] | [12] | [14] | [15] | [16]
1: [13]

Taken from the entries so far (5 entries):
RPS6KA1 (UniProt Q15418)
0: [1] | [2] | [3] | [4] | [5] | [6] | [7] | [8] | [9] | [10] | [11] | [12] | [13] | [14] | [15] | [16]

RIOK1 (UniProt Q9BRS2)
1: [4]
0: [1] | [2] | [3] | [5] | [6] | [7] | [8] | [9] | [10] | [11] | [12] | [13] | [14] | [15] | [16]

ERBB4_R711C (clone: ERBB4_mut) (UniProt Q15303)
2: [2] | [4] | [15]
1: [1] | [5] | [9]
0: [3] | [6] | [7] | [10] | [11] | [12] | [13] | [14] | [16]
3: [8]

JAK1 (UniProt P23458)
2: [8] | [9]
0: [1] | [2] | [3] | [4] | [5] | [6] | [7] | [10] | [11] | [12] | [13] | [14] | [15] | [16]

GSK3A (UniProt P49840)
0: [1] | [2] | [3] | [4] | [5] | [6] | [7] | [8] | [9] | [10] | [11] | [12] | [14] | [15] | [16]
1: [13]

(list continues)

DYRK1B (UniProt Q9Y463)
0: [1] | [2] | [3] | [4] | [5] | [6] | [7] | [8] | [9] | [10] | [11] | [12] | [13] | [14] | [15] | [16]

CHEK2 (UniProt O96017)
0: [1] | [3] | [5] | [6] | [7] | [8] | [9] | [10] | [11] | [12] | [13] | [14] | [15] | [16]
2: [4]
1: [2]

BTK (UniProt Q06187)
0: [1] | [2] | [3] | [4] | [5] | [6] | [7] | [8] | [9] | [10] | [11] | [12] | [13] | [14] | [15] | [16]

TYK2 (UniProt P29597)
1: [4] | [15]
0: [1] | [2] | [3] | [5] | [7] | [8] | [9] | [10] | [11] | [12] | [13] | [14] | [16]
4: [6]

PAK4 (UniProt O96013)
0: [1] | [2] | [3] | [4] | [5] | [6] | [7] | [8] | [9] | [10] | [11] | [12] | [13] | [14] | [15] | [16]

LMTK2 (UniProt Q8IWU2)
3: [8]
1: [9]
0: [1] | [2] | [3] | [4] | [5] | [6] | [7] | [10] | [11] | [12] | [13] | [14] | [15] | [16]

Source: the supplement of paper PMC12823440, “Inhibitors supercharge kinase turnover through native proteolytic circuits” (Nature, 2025)
